These are yes or no findings as the source states them, for the method shown. For some assays here: Binding seen in cells or lysates may run through a third protein. Some results given as binding are weak or reduced against the parent protein; the word gives no strength. Tags and fused reporters may be left off the sequences shown.
Columns and labels:
[1] = target: T1, BD-VdZFP2 (Verticillium dahliae) (UniProt G2XEQ9); assay: two-hybrid; one-to-one Y2H in yeast Y2Hgold; prey in pGADT7, bait in pGBKT7; growth and blue colour on QDO (SD lacking Leu, Trp, His, Ade) with 3AT, 0.1 ug/mL AbA and 20 ug/mL X-a-Gal, 5 days
T1 sequence: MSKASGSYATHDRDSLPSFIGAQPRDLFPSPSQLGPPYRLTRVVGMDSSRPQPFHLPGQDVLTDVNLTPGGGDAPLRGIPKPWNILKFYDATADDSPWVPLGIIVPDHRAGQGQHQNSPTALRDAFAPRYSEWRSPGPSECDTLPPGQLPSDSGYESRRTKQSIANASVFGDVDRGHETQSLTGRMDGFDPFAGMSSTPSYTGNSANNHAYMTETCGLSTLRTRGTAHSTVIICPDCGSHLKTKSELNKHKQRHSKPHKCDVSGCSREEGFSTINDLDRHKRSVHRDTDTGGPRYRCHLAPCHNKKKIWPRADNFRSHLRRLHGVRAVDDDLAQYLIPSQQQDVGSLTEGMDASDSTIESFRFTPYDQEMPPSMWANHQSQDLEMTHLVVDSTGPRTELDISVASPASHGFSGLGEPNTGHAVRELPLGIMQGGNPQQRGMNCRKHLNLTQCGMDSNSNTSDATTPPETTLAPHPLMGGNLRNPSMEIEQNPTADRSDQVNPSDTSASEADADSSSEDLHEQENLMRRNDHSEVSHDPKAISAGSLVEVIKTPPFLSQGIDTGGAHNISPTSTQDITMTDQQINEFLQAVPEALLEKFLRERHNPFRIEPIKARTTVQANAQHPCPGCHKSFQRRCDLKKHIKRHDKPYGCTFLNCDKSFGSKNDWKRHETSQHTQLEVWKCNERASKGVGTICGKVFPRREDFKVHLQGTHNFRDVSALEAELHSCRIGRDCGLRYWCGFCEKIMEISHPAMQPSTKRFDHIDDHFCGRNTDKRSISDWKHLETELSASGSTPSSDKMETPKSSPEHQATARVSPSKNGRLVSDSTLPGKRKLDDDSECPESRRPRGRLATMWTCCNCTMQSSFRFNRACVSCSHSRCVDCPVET

[2] = target: T2, VdZFP2-YFP^N (Verticillium dahliae) (UniProt G2XEQ9); assay: split reporter; BiFC with YFP^N (pHZ65) and YFP^C (pHZ68) fusions co-transformed into protoplasts of V. dahliae WT strain AT13; YFP signal by fluorescence microscopy, cell wall stained with CFW
T2 sequence: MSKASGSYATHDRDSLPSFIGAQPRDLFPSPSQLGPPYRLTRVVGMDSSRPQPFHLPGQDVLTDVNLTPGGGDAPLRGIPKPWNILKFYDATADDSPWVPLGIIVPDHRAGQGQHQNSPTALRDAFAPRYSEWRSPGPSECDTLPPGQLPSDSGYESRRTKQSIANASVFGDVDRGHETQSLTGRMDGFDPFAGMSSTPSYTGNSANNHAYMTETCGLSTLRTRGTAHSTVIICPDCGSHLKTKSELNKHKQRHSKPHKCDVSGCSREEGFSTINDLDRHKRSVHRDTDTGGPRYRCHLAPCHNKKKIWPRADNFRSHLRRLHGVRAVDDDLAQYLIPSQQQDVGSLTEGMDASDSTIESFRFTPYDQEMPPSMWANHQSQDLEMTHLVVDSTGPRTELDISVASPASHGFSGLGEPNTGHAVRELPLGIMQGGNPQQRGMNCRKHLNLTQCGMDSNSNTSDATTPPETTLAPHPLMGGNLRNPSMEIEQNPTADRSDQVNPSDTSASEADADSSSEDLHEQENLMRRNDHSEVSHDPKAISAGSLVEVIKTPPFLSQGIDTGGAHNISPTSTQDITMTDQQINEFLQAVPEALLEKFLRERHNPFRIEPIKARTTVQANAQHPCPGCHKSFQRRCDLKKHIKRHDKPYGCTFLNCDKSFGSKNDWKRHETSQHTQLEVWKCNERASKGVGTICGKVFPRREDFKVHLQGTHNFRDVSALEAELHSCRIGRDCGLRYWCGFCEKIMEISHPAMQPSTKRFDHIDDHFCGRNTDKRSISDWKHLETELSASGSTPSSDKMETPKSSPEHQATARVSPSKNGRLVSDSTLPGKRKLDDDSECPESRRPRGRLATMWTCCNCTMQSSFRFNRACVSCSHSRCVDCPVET

B1: AD-VdZFP1 (protein, UniProt G2XER1 1-585)
chain: MTYHIFHLDRRLTQGPFYPEHQDYGQNQASHTEDALNFDMPPPIDPNLEQGLTAHLGTVSWPGVHTHQLKQYMVGPSTSLFALGQFQANYAYSQHDVNPLPPVSQGRHGSPFSQHHSSSCSDSLSPPTEIDVLPSTPPDMSATSPFSQAIKFQPSWDAQQSRLYTLRGIVPTQENPYVSLLEVNPSQDIFENEKAPEYDGSMALSFSSAGSQSEMEVQVKDEIFVAHSHSQPTYPDPDYEERDQSELEAEEMIMKHEDEDKEWTPHPSRKRTRSDANKAQYVATRPARKRSKVHALPRAVPSKSSHEAPHSTKHVLSCEACAQGPFRDEAALQKHMKGKHIRPFVCIFNFAGCSSSFPSKNEWKRHVVTQHLALSFWHCKQDACESCTNPASASQQGSPATDTPSPLPRGAIFNRKDLYTQHVRRMHVPPPIAKALRLRKPTPEWDDRLREMQTEAERRRCELPTHMQCPASGCDMVFSGANAWDERMEHVAKHLEKASEGREPMLSFGGDGDPTLTNWAASPGVGVVRKTDTGEWELMHPLRGQPASAGGIAKRGAKGHSSSSPQAARYEEESAEDVDADGEED
[1]
  binding: binds

B2: VdZFP1-YFP^C (protein, UniProt G2XER1 1-585)
chain: MTYHIFHLDRRLTQGPFYPEHQDYGQNQASHTEDALNFDMPPPIDPNLEQGLTAHLGTVSWPGVHTHQLKQYMVGPSTSLFALGQFQANYAYSQHDVNPLPPVSQGRHGSPFSQHHSSSCSDSLSPPTEIDVLPSTPPDMSATSPFSQAIKFQPSWDAQQSRLYTLRGIVPTQENPYVSLLEVNPSQDIFENEKAPEYDGSMALSFSSAGSQSEMEVQVKDEIFVAHSHSQPTYPDPDYEERDQSELEAEEMIMKHEDEDKEWTPHPSRKRTRSDANKAQYVATRPARKRSKVHALPRAVPSKSSHEAPHSTKHVLSCEACAQGPFRDEAALQKHMKGKHIRPFVCIFNFAGCSSSFPSKNEWKRHVVTQHLALSFWHCKQDACESCTNPASASQQGSPATDTPSPLPRGAIFNRKDLYTQHVRRMHVPPPIAKALRLRKPTPEWDDRLREMQTEAERRRCELPTHMQCPASGCDMVFSGANAWDERMEHVAKHLEKASEGREPMLSFGGDGDPTLTNWAASPGVGVVRKTDTGEWELMHPLRGQPASAGGIAKRGAKGHSSSSPQAARYEEESAEDVDADGEED
[2]
  binding: binds
